# Test results as given in article PMC7962754.
# No constants are given. Whether binding was seen depends on the method and setting. Binding seen in cells or lysates may run through a third protein. Some binding calls cover weakened binding; strength is not graded here. Where a sequence is shown, tags or fusion partners need not be part of it.
# Target: T1, IHFα1, integration host factor α subunit encoded by ihfA-1 of G. sulfurreducens, histidine-tagged (Geobacter sulfurreducens) (UniProt Q74CZ8)
# T1 sequence: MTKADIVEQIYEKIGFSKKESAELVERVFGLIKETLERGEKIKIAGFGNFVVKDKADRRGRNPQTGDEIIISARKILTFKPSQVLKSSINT
# Test: pull-down; His-tagged IHFα1 and untagged IHFβ2 co-expressed in E. coli from one promoter; IHFα1 held on Ni-NTA resin, 4°C, non-denaturing conditions; IHFβ2 co-eluted
binder,measurement,value
"IHFβ2, integration host factor β subunit encoded by ihfB-2 of G. sulfurreducens, untagged (protein, UniProt Q749Z0 1-96) MTKSELVEMLAEKNSWLTRKDSEMVVNIVFDSIADALKSGEKVEIRGFGSFTVRERGAREARNPKSGAIVKIPAKKTPFFKTGKELRERVNHENAD",binding,binds
